{"sequences": {"note": "Chains of the proteins cited; added tags and fusions are not shown. Residues count along the entry.", "UniProt Q15303, 26-1308, species assumed": "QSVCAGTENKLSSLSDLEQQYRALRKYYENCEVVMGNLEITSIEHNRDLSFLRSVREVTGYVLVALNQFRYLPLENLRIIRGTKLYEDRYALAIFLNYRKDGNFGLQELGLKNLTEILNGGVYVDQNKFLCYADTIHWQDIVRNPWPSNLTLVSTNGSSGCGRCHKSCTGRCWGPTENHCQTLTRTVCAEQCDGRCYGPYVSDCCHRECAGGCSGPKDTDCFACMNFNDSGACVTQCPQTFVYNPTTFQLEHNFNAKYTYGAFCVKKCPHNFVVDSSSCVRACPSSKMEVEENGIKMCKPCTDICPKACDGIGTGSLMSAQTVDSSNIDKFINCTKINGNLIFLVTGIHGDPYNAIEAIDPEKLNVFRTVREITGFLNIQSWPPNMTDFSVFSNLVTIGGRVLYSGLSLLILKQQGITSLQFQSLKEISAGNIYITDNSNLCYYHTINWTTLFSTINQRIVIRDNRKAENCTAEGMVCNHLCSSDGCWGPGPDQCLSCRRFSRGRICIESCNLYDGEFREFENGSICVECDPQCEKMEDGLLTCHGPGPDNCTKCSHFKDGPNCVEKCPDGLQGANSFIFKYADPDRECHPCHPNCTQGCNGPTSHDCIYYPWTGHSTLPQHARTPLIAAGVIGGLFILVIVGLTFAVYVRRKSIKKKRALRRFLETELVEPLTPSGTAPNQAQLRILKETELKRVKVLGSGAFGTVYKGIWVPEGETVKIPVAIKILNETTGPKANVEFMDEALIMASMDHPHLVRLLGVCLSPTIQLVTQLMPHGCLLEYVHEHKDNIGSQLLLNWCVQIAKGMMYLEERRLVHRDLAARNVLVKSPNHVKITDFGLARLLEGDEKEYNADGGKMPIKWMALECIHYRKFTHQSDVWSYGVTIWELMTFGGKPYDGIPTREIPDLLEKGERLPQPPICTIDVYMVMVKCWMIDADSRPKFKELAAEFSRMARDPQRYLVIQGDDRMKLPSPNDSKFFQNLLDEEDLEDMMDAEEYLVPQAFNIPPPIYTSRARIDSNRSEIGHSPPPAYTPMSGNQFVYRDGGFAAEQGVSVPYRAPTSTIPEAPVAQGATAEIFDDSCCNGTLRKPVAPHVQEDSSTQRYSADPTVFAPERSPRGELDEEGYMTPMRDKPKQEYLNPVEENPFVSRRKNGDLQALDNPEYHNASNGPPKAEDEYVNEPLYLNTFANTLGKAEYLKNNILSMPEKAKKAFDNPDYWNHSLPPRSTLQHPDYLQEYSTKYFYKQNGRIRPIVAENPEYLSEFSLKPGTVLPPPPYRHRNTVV"}, "source": "patent US20260243779A1", "about": "“METHOD FOR EVALUATING RECEPTOR-TYPE TYROSINE KINASE ACTIVITY” (The University of Osaka, priority 2023, published 2026)", "key": {"[1]": {"target": "T1, ErbB4 (Homo sapiens, UniProt Q15303)", "T1 construct": "expressed in transfected cells; host or cells: CHO cells", "assay": "Single-molecule imaging of CHO cell expressing ErbB4-GFP, MSD ratio HRG-treated/untreated", "assay_type": "cell-based", "conditions": "drug 0.1 to 10,000 nM; HRG saturated (>30 nM); concentration-dependent; FIG. 8B"}, "[2]": {"target": "T2, EGFR (Homo sapiens, UniProt P00533)", "assay": "Drug evaluation / FDA-approved drug library screening using MSDδt=500 ms ratio before and after EGF addition, CHO cells expressing EGFR-GFP"}, "[3]": {"target": "T2, EGFR", "assay": "EGFR immunostaining, subcellular localization of the EGFR", "assay_type": "cell-based", "conditions": "EGF not necessary"}}, "note": "At least one structure is not confirmed: it was looked up by name or label, or the drawing left a doubt."}
{"smiles": "CN(C)C/C=C/C(=O)Nc1cc2c(Nc3ccc(F)c(Cl)c3)ncnc2cc1O[C@H]1CCOC1", "note": "[Afatinib]", "values": [{"measurement": "effect on reduction of receptor mobility (MSDδt=500 ms ratio) by HRG, ErbB4", "setting": "[1]", "result": "inhibited the reduction of the receptor mobility"}]}
{"smiles": "CC1=NN(c2ccc(C)c(C)c2)C(=O)/C1=N\\Nc1cccc(-c2cccc(C(=O)O)c2)c1O", "note": "[Eltrombopag]", "values": [{"measurement": "MSDδt=500 ms ratio compared with the control", "setting": "[2]; compound addition changed MSDδt=500 ms in an EGF-independent manner", "result": "significantly different from the control"}, {"measurement": "effect on the subcellular localization of the EGFR", "setting": "[3]", "result": "EGFR was incorporated into the cell"}]}
{"smiles": "C=CC(=O)N1CCC[C@@H](n2nc(-c3ccc(Oc4ccccc4)cc3)c3c(N)ncnc32)C1", "note": "[Ibrutinib]", "values": [{"measurement": "selected after re-measurement of hits (MSDδt=500 ms ratio increased in a concentration-dependent manner, significance level 5%)", "setting": "[2]; five conditions 1, 10, 100, 1,000, and 10,000 nM, 12 compounds selected from 53", "result": "obtained from the screening"}]}
